Test results reported in the supplement of paper PMC8728848.
The other results are listed elsewhere or left out.

What was measured:
Assay in all cases: glycan array binding signal (z-score within array); higher = stronger binding
Conditions in all cases: glycan notation: IUPAC condensed, linker removed
[1] = molecular target: GlcNAc(b1-2)[GlcNAc(b1-4)]Man(a1-3)[GlcNAc(b1-4)][GlcNAc(b1-2)[GlcNAc(b1-6)]Man(a1-6)]Man(b1-4)GlcNAc(b1-4)GlcNAc
How it was run: (§1)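 The Consortium for Functional Glycomics database supplied 3228 glycan arrays, of which those lacking an available protein sequence were dropped. The binding signal, a within-array Z-score, was averaged across arrays of the same protein sequence and across linkers. Negative scores can be read as non-binding.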

[2] = molecular target: GlcNAc(b1-2)[GlcNAc(b1-4)]Man(a1-3)[GlcNAc(b1-4)][GlcNAc(b1-2)[GlcNAc(b1-6)]Man(a1-6)]Man(b1-4)GlcNAc(b1-4)[Fuc(a1-6)]GlcNAc
How it was run: as §1

[3] = molecular target: GlcNAc(b1-2)[GlcNAc(b1-6)]Man(a1-6)[GlcNAc(b1-2)Man(a1-3)]Man(b1-4)GlcNAc(b1-4)GlcNAc
How it was run: as §1

[4] = molecular target: GlcNAc(b1-2)[GlcNAc(b1-6)]Man(a1-6)[GlcNAc(b1-2)Man(a1-3)]Man(b1-4)GlcNAc(b1-4)[Fuc(a1-6)]GlcNAc
How it was run: as §1

[5] = molecular target: GlcNAc(b1-2)[GlcNAc(b1-6)]Man(a1-6)[GlcNAc(b1-4)][GlcNAc(b1-2)Man(a1-3)]Man(b1-4)GlcNAc(b1-4)GlcNAc
How it was run: as §1

GlcNAc(b1-3)Fuc = molecular target: GlcNAc(b1-3)Fuc
How it was run: as §1

GlcNAc(b1-3)Gal = molecular target: GlcNAc(b1-3)Gal
How it was run: as §1

[6] = molecular target: GlcNAc(b1-3)Gal(b1-3)GalNAc
How it was run: as §1

GlcNAc(b1-3)Gal(b1-4)Glc = molecular target: GlcNAc(b1-3)Gal(b1-4)Glc
How it was run: as §1

[7] = molecular target: GlcNAc(b1-3)Gal(b1-4)GlcNAc
How it was run: as §1

[8] = molecular target: GlcNAc(b1-3)Gal(b1-4)GlcNAc(b1-2)Man(a1-3)[GlcNAc(b1-3)Gal(b1-4)GlcNAc(b1-2)Man(a1-6)]Man(b1-4)GlcNAc(b1-4)GlcNAc
How it was run: as §1

[9] = molecular target: GlcNAc(b1-3)Gal(b1-4)GlcNAc(b1-2)Man(a1-3)[GlcNAc(b1-3)Gal(b1-4)GlcNAc(b1-2)Man(a1-6)]Man(b1-4)GlcNAc(b1-4)[Fuc(a1-6)]GlcNAc
How it was run: as §1

[10] = molecular target: GlcNAc(b1-3)Gal(b1-4)GlcNAc(b1-2)[GlcNAc(b1-3)Gal(b1-4)GlcNAc(b1-6)]Man(a1-6)[GlcNAc(b1-3)Gal(b1-4)GlcNAc(b1-2)Man(a1-3)]Man(b1-4)GlcNAc(b1-4)GlcNAc
How it was run: as §1

[11] = molecular target: GlcNAc(b1-3)Gal(b1-4)GlcNAc(b1-3)Gal(b1-4)GlcNAc
How it was run: as §1

[12] = molecular target: GlcNAc(b1-3)Gal(b1-4)GlcNAc(b1-3)Gal(b1-4)GlcNAc(b1-2)Man(a1-3)[GlcNAc(b1-3)Gal(b1-4)GlcNAc(b1-3)Gal(b1-4)GlcNAc(b1-2)Man(a1-6)]Man(b1-4)GlcNAc(b1-4)GlcNAc
How it was run: as §1

[13] = molecular target: GlcNAc(b1-3)Gal(b1-4)GlcNAc(b1-3)Gal(b1-4)GlcNAc(b1-2)Man(a1-3)[GlcNAc(b1-3)Gal(b1-4)GlcNAc(b1-3)Gal(b1-4)GlcNAc(b1-2)Man(a1-6)]Man(b1-4)GlcNAc(b1-4)[Fuc(a1-6)]GlcNAc
How it was run: as §1

[14] = molecular target: GlcNAc(b1-3)Gal(b1-4)GlcNAc(b1-3)Gal(b1-4)GlcNAc(b1-2)[GlcNAc(b1-3)Gal(b1-4)GlcNAc(b1-3)Gal(b1-4)GlcNAc(b1-6)]Man(a1-6)[GlcNAc(b1-3)Gal(b1-4)GlcNAc(b1-3)Gal(b1-4)GlcNAc(b1-2)Man(a1-3)]Man(b1-4)GlcNAc(b1-4)[Fuc(a1-6)]GlcNAc
How it was run: as §1

[15] = molecular target: GlcNAc(b1-3)Gal(b1-4)GlcNAc(b1-3)Gal(b1-4)GlcNAc(b1-3)Gal(b1-4)GlcNAc(b1-2)Man(a1-3)[GlcNAc(b1-3)Gal(b1-4)GlcNAc(b1-3)Gal(b1-4)GlcNAc(b1-3)Gal(b1-4)GlcNAc(b1-2)Man(a1-6)]Man(b1-4)GlcNAc(b1-4)GlcNAc
How it was run: as §1

[16] = molecular target: GlcNAc(b1-3)Gal(b1-4)GlcNAc(b1-3)Gal(b1-4)GlcNAc(b1-3)Gal(b1-4)GlcNAc(b1-2)Man(a1-3)[GlcNAc(b1-3)Gal(b1-4)GlcNAc(b1-3)Gal(b1-4)GlcNAc(b1-3)Gal(b1-4)GlcNAc(b1-2)Man(a1-6)]Man(b1-4)GlcNAc(b1-4)[Fuc(a1-6)]GlcNAc
How it was run: as §1

[17] = molecular target: GlcNAc(b1-3)Gal(b1-4)GlcNAc(b1-3)Gal(b1-4)GlcNAc(b1-3)Gal(b1-4)GlcNAc(b1-2)[GlcNAc(b1-3)Gal(b1-4)GlcNAc(b1-3)Gal(b1-4)GlcNAc(b1-3)Gal(b1-4)GlcNAc(b1-6)]Man(a1-6)[GlcNAc(b1-3)Gal(b1-4)GlcNAc(b1-3)Gal(b1-4)GlcNAc(b1-3)Gal(b1-4)GlcNAc(b1-2)Man(a1-3)]Man(b1-4)GlcNAc(b1-4)[Fuc(a1-6)]GlcNAc
How it was run: as §1

[18] = molecular target: GlcNAc(b1-3)Gal(b1-4)GlcNAc(b1-3)Gal(b1-4)GlcNAc(b1-3)Gal(b1-4)GlcNAc(b1-3)Gal(b1-4)GlcNAc(b1-2)Man(a1-3)[GlcNAc(b1-3)Gal(b1-4)GlcNAc(b1-3)Gal(b1-4)GlcNAc(b1-3)Gal(b1-4)GlcNAc(b1-3)Gal(b1-4)GlcNAc(b1-2)Man(a1-6)]Man(b1-4)GlcNAc(b1-4)GlcNAc
How it was run: as §1

[19] = molecular target: GlcNAc(b1-3)Gal(b1-4)GlcNAc(b1-3)Gal(b1-4)GlcNAc(b1-3)Gal(b1-4)GlcNAc(b1-3)Gal(b1-4)GlcNAc(b1-2)Man(a1-3)[GlcNAc(b1-3)Gal(b1-4)GlcNAc(b1-3)Gal(b1-4)GlcNAc(b1-3)Gal(b1-4)GlcNAc(b1-3)Gal(b1-4)GlcNAc(b1-2)Man(a1-6)]Man(b1-4)GlcNAc(b1-4)[Fuc(a1-6)]GlcNAc
How it was run: as §1

[20] = molecular target: GlcNAc(b1-3)Gal(b1-4)GlcNAc(b1-3)Gal(b1-4)GlcNAc(b1-3)Gal(b1-4)GlcNAc(b1-3)Gal(b1-4)GlcNAc(b1-2)[GlcNAc(b1-3)Gal(b1-4)GlcNAc(b1-3)Gal(b1-4)GlcNAc(b1-3)Gal(b1-4)GlcNAc(b1-3)Gal(b1-4)GlcNAc(b1-6)]Man(a1-6)[GlcNAc(b1-3)Gal(b1-4)GlcNAc(b1-3)Gal(b1-4)GlcNAc(b1-3)Gal(b1-4)GlcNAc(b1-3)Gal(b1-4)GlcNAc(b1-2)Man(a1-3)]Man(b1-4)GlcNAc(b1-4)[Fuc(a1-6)]GlcNAc
How it was run: as §1

[21] = molecular target: GlcNAc(b1-3)Gal(b1-4)GlcNAc(b1-3)Gal(b1-4)GlcNAc(b1-3)GalNAc
How it was run: as §1

[22] = molecular target: GlcNAc(b1-3)Gal(b1-4)GlcNAc(b1-3)GalNAc
How it was run: as §1

[23] = molecular target: GlcNAc(b1-3)Gal(b1-4)GlcNAc(b1-3)[GlcNAc(b1-3)Gal(b1-4)GlcNAc(b1-3)]GalNAc
How it was run: as §1

[24] = molecular target: GlcNAc(b1-3)Gal(b1-4)GlcNAc(b1-6)[Gal(b1-3)]GalNAc
How it was run: as §1

[25] = molecular target: GlcNAc(b1-3)Gal(b1-4)GlcNAc(b1-6)[GlcNAc(b1-3)Gal(b1-3)]GalNAc
How it was run: as §1

[26] = molecular target: GlcNAc(b1-3)Gal(b1-4)GlcNAc(b1-6)[GlcNAc(b1-3)]Gal(b1-4)GlcNAc
How it was run: as §1

GlcNAc(b1-3)GalNAc = molecular target: GlcNAc(b1-3)GalNAc
How it was run: as §1

GlcNAc(b1-3)Man = molecular target: GlcNAc(b1-3)Man
How it was run: as §1

[27] = molecular target: GlcNAc(b1-3)[GlcNAc(b1-4)][GlcNAc(b1-6)]GlcNAc
How it was run: as §1

[28] = molecular target: GlcNAc(b1-3)[GlcNAc(b1-6)]Gal(b1-4)GlcNAc
How it was run: as §1

[29] = molecular target: GlcNAc(b1-3)[GlcNAc(b1-6)]GalNAc
How it was run: as §1

[30] = molecular target: GlcNAc(b1-4)Gal(b1-4)GlcNAc
How it was run: as §1

GlcNAc(b1-4)GlcNAc = molecular target: GlcNAc(b1-4)GlcNAc
How it was run: as §1

[31] = molecular target: GlcNAc(b1-4)GlcNAc(b1-4)GlcNAc
How it was run: as §1

[32] = molecular target: GlcNAc(b1-4)GlcNAc(b1-4)GlcNAc(b1-4)GlcNAc(b1-4)GlcNAc
How it was run: as §1

B1: SspB A3vp1 (Streptococcus gordonii), Q54186 (protein)
chain: MTNEADYQAKLAAYQTELARVQKANADAKATYEKAVEDNKAKNAAIKAENEEIKQRNAVAKTDYEAKLAKYEADLAKYKKEFAAYTAALAEAESKKKQDGYLSEPRSQSLNFKSEPNAIRTIDSSVHQYGQQELDALVKSWGISPTNPDRKKSRAYSYFNAINSNNTYAKLVLEKDKPVDVTYTGLKNSSFNGKKISKVVYTYTLKETGFNDGTKMTMFASSDPTVTAWYNDYFTSTNINVKVKFYDEEGQLMNLTGGLVNFSSLNRGNGSGAIDKDAIESVRNFNGRYIPISGSSIKIHENNSAYADSSNAEKSLGARWNTSEWDTTSSPNNWYGAIVGEITQSEISFNMASSKSGNIWFAFNSNINAIGVPTKPVAPTAPTQPMYETEKPLEPAPVAPSYENEPTPPVKTPDQPEPSKPAAALEHHHHHH
[1]
  glycan array binding signal (z-score): -0.574
[2]
  glycan array binding signal (z-score): -0.341
[3]
  glycan array binding signal (z-score): -0.001
[4]
  glycan array binding signal (z-score): 0.007
[5]
  glycan array binding signal (z-score): -0.233
GlcNAc(b1-3)Fuc
  glycan array binding signal (z-score): -0.426
GlcNAc(b1-3)Gal
  glycan array binding signal (z-score): -1.12
[6]
  glycan array binding signal (z-score): 0.022
GlcNAc(b1-3)Gal(b1-4)Glc
  glycan array binding signal (z-score): -1.18
[7]
  glycan array binding signal (z-score): -0.345
[8]
  glycan array binding signal (z-score): 0.452
[9]
  glycan array binding signal (z-score): 0.327
[10]
  glycan array binding signal (z-score): 0.885
[11]
  glycan array binding signal (z-score): -0.627
[12]
  glycan array binding signal (z-score): 0.661
[13]
  glycan array binding signal (z-score): 1.62
[14]
  glycan array binding signal (z-score): 0.956
[15]
  glycan array binding signal (z-score): 0.656
[16]
  glycan array binding signal (z-score): 1.92
[17]
  glycan array binding signal (z-score): -0.133
[18]
  glycan array binding signal (z-score): 1.28
[19]
  glycan array binding signal (z-score): 1.69
[20]
  glycan array binding signal (z-score): 0.521
[21]
  glycan array binding signal (z-score): -0.75
[22]
  glycan array binding signal (z-score): -1.3
[23]
  glycan array binding signal (z-score): -0.753
[24]
  glycan array binding signal (z-score): 0.02
[25]
  glycan array binding signal (z-score): -0.219
[26]
  glycan array binding signal (z-score): -0.22
GlcNAc(b1-3)GalNAc
  glycan array binding signal (z-score): -0.544
GlcNAc(b1-3)Man
  glycan array binding signal (z-score): -0.688
[27]
  glycan array binding signal (z-score): -0.608
[28]
  glycan array binding signal (z-score): -0.062
[29]
  glycan array binding signal (z-score): -0.612
[30]
  glycan array binding signal (z-score): 0.043
GlcNAc(b1-4)GlcNAc
  glycan array binding signal (z-score): -0.933
[31]
  glycan array binding signal (z-score): -1.14
[32]
  glycan array binding signal (z-score): -0.741
